The target of assay [1] is T1, C-terminally myc-tagged human PLC-β3 (human) (UniProt Q01970).
T1 sequence: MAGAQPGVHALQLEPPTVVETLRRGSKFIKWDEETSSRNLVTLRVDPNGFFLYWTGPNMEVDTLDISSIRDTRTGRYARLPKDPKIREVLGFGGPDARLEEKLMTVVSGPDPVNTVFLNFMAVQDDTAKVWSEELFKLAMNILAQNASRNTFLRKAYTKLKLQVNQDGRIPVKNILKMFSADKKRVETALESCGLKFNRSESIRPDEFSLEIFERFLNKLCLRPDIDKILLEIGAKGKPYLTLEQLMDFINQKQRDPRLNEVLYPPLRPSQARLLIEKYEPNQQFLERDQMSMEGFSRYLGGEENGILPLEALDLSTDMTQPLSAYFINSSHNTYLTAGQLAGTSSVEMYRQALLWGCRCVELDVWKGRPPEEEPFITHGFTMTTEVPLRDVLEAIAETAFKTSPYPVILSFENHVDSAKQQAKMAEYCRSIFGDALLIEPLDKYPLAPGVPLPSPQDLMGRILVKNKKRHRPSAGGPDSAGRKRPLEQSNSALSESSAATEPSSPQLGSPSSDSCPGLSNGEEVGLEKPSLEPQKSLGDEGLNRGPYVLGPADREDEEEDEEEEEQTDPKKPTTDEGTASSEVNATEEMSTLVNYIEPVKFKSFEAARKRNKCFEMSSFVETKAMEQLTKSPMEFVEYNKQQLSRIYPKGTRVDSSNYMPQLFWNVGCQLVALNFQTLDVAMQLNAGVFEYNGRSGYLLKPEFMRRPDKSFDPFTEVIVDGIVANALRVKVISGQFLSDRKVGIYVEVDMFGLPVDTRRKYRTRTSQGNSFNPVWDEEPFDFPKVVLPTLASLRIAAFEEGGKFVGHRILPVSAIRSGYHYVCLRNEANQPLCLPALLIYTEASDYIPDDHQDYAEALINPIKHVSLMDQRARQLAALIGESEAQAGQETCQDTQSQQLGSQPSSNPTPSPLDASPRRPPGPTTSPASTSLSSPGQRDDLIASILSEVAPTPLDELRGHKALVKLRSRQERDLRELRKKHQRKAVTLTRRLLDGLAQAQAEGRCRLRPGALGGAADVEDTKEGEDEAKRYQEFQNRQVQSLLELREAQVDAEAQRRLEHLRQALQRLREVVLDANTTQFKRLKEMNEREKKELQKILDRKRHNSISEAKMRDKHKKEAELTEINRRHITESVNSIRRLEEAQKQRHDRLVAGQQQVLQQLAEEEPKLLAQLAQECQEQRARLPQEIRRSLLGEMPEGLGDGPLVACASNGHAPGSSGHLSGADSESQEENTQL
Put plainly: co-IP; anti-c-Myc antibody on Dynabeads, lysates (1% NP-40 buffer) of co-transfected HEK293T cells 48 h after transfection, 10 min at RT, Western blot for the co-expressed protein; with or without co-expressed Gαq (WT or Q209L) in Figure S8A.

By UniProt entry, the sequences of proteins in these tests, tags left out. Residues count along the entry.
UniProt Q9NQB0: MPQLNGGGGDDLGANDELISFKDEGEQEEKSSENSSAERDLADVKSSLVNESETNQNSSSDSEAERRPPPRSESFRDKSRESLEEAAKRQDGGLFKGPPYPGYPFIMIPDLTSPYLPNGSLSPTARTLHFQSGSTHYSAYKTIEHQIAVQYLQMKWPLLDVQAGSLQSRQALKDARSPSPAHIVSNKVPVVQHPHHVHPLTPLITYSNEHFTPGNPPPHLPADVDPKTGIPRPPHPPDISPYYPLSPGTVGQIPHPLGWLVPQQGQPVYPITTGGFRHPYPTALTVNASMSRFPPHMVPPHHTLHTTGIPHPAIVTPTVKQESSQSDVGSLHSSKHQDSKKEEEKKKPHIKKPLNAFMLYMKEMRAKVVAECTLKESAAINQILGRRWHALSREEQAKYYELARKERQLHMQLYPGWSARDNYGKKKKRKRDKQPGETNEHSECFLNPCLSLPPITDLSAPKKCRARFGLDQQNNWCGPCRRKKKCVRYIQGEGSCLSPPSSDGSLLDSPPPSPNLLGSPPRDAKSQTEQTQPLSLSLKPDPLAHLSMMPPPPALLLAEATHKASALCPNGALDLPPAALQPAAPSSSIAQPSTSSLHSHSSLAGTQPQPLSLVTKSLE
UniProt Q9ULV1, residues 37-537: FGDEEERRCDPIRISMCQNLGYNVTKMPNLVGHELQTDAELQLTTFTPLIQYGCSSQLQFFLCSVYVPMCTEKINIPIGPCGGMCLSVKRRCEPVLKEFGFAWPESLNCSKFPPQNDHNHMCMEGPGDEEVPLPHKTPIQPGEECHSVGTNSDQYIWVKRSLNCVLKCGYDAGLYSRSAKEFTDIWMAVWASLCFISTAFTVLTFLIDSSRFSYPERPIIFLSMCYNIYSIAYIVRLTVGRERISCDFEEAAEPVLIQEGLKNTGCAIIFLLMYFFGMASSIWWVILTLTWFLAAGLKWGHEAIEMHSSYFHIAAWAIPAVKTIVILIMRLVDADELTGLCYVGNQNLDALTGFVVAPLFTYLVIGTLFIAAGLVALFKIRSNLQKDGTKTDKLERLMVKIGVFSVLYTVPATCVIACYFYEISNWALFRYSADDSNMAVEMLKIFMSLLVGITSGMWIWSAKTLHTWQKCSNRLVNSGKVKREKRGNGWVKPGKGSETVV
UniProt Q13467, residues 27-585: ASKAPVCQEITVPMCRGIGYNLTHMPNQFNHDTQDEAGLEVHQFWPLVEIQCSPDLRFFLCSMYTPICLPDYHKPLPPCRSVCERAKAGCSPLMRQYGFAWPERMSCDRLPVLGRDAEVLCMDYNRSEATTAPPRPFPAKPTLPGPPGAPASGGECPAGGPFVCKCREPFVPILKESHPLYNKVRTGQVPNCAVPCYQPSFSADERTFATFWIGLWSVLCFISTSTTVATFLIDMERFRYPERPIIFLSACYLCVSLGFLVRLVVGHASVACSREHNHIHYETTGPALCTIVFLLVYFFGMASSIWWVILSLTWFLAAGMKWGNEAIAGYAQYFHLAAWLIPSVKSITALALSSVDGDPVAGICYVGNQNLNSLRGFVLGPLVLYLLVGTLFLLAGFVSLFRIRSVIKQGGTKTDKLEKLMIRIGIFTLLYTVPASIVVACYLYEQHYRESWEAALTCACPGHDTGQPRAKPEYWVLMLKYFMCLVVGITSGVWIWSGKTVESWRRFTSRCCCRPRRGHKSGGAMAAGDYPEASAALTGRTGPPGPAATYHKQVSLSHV
UniProt Q9H461, residues 28-694: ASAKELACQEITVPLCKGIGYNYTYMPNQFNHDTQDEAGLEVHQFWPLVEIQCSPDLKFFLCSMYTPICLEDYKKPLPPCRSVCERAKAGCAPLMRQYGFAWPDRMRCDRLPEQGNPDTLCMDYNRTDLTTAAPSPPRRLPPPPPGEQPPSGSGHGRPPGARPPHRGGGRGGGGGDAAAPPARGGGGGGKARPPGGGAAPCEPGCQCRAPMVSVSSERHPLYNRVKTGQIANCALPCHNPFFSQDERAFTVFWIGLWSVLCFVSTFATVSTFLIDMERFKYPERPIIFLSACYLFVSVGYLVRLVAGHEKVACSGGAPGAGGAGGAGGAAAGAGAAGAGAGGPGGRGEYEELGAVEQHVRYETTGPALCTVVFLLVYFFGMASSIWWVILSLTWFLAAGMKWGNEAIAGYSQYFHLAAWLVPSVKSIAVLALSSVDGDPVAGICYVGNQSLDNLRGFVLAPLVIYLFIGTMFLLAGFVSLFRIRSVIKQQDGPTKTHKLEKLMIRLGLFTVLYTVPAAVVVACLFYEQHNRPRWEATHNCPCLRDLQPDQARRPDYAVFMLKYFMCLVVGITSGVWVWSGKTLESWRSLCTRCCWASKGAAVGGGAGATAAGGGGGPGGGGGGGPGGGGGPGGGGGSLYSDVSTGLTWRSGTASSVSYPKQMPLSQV
UniProt P49841: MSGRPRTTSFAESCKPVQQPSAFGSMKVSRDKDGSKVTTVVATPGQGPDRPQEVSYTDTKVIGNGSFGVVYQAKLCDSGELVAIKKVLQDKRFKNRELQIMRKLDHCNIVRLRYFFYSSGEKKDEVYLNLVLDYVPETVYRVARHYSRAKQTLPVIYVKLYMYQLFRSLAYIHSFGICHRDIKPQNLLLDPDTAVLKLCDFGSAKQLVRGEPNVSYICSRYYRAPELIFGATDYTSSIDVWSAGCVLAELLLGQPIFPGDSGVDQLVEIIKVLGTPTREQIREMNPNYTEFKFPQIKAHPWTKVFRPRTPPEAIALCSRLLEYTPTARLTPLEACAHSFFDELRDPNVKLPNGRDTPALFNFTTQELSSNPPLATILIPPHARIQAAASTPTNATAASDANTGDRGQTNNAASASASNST
UniProt Q9UJU2: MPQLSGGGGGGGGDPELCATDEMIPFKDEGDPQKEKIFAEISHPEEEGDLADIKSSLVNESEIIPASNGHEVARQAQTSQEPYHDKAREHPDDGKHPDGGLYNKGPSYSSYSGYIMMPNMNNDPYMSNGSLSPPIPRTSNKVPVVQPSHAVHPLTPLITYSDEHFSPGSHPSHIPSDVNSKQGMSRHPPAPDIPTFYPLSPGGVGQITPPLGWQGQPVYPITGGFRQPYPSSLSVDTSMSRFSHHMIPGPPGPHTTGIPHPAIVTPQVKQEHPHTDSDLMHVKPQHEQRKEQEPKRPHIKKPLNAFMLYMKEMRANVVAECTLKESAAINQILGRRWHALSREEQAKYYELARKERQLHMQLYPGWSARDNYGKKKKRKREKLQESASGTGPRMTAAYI

The target in assay [2] is T2, myc-tagged human PLC-β3 (human) (UniProt Q01970).
T2 sequence: T1 sequence
The description is as above.

Assay [3] deals with T3, PLC-β3 (proximity ligation assay) (UniProt Q01970).
T3 sequence: T1 sequence
Put plainly: proximity ligation; cells co-transfected with vectors for the two proteins (CHO in the legend, HEK293T in the text), pairs of primary antibodies.

The target of another assay is Tcf-4 (UniProt Q9NQB0). Put plainly: co-IP; anti-Dvl2 or anti-Tcf-4 antibody on Dynabeads, lysates (1% NP-40 buffer) of co-transfected HEK293T cells, Western blot for PLC-β3; control IgG. Background: In western blotting, separated proteins are transferred to a membrane and probed.

Results are given in words; binding and its absence hold for the method and conditions named. Binding seen in cells or lysates may run through a third protein. Some entries that bind do so weakly or less than the wild type. For some of these results: Tags and fused reporters may be left off the sequences shown.

Regarding “Fzd4 (from UniProt Q9ULV1 37-537) (receptor)”, the binding entry in assay [1] is “no binding”. Regarding “Fzd5 (from UniProt Q13467 27-585) (receptor)”, the binding entry in assay [1] is listed as “no binding”. Consider “Fzd8 (from UniProt Q9H461 28-694) (receptor)”, for which the binding result in assay [1] is given as “no binding”. Consider “GSK3β (from UniProt P49841 1-420) (enzyme)”, for which the binding result in assay [2] is “binds”.

For the molecule Lef-1 (from UniProt Q9UJU2 1-399), the binding result in assay [2] was “binds”.

Regarding “Lef-1 (proximity ligation assay) (from UniProt Q9UJU2 1-399)”, in assay [3], the binding entry was “binds”. On to Tcf-4 (from UniProt Q9NQB0 1-619), for which the binding result in assay [2] is listed as “binds”.

B1: NLK (enzyme, UniProt Q9UBE8 1-527)
chain: MSLCGARANAKMMAAYNGGTSAAAAGHHHHHHHHLPHLPPPHLHHHHHPQHHLHPGSAAAVHPVQQHTSSAAAAAAAAAAAAAMLNPGQQQPYFPSPAPGQAPGPAAAAPAQVQAAAAATVKAHHHQHSHHPQQQLDIEPDRPIGYGAFGVVWSVTDPRDGKRVALKKMPNVFQNLVSCKRVFRELKMLCFFKHDNVLSALDILQPPHIDYFEEIYVVTELMQSDLHKIIVSPQPLSSDHVKVFLYQILRGLKYLHSAGILHRDIKPGNLLVNSNCVLKICDFGLARVEELDESRHMTQEVVTQYYRAPEILMGSRHYSNAIDIWSVGCIFAELLGRRILFQAQSPIQQLDLITDLLGTPSLEAMRTACEGAKAHILRGPHKQPSLPVLYTLSSQATHEAVHLLCRMLVFDPSKRISAKDALAHPYLDEGRLRYHTCMCKCCFSTSTGRVYTSDFEPVTNPKFDDTFEKNLSSVRQVKEIIHQFILEQQKGNRVPLCINPQSAAFKSFISSTVAQPSEMPPSPLVWE
With B1, in assay [2], the binding result was “binds”.

B2: human PLC-β3 (construct of the anti-Dvl2 and anti-Tcf-4 immunoprecipitations) (enzyme, UniProt Q01970 1-1234)
chain: T1 sequence
Consider B2, for which, in the assay with Tcf-4, the binding result is listed as “binds weakly”.

B3: Wls (protein, UniProt Q5T9L3 1-541)
chain: MAGAIIENMSTKKLCIVGGILLVFQIIAFLVGGLIAPGPTTAVSYMSVKCVDARKNHHKTKWFVPWGPNHCDKIRDIEEAIPREIEANDIVFSVHIPLPHMEMSPWFQFMLFILQLDIAFKLNNQIRENAEVSMDVSLAYRDDAFAEWTEMAHERVPRKLKCTFTSPKTPEHEGRYYECDVLPFMEIGSVAHKFYLLNIRLPVNEKKKINVGIGEIKDIRLVGIHQNGGFTKVWFAMKTFLTPSIFIIMVWYWRRITMMSRPPVLLEKVIFALGISMTFINIPVEWFSIGFDWTWMLLFGDIRQGIFYAMLLSFWIIFCGEHMMDQHERNHIAGYWKQVGPIAVGSFCLFIFDMCERGVQLTNPFYSIWTTDIGTELAMAFIIVAGICLCLYFLFLCFMVFQVFRNISGKQSSLPAMSKVRRLHYEGLIFRFKFLMLITLACAAMTVIFFIVSQVTEGHWKWGGVTVQVNSAFFTGIYGMWNLYVFALMFLYAPSHKNYGEDQSNGDLGVHSGEELQLTTTITHVDGPTEIYKLTRKEAQE
With B3, in assay [2], the binding result was “binds”.
